Test results: publication PMC11977269
These are yes or no findings as the source states them, for the method shown. Binding seen in cells or lysates may run through a third protein. Some binding calls cover weakened binding; strength is not graded here.

The chains behind the UniProt entries cited, without tags or fusion partners. Where a name states a change or a piece, a line headed by the entry shows the natural chain unless it says otherwise.
UniProt O15392: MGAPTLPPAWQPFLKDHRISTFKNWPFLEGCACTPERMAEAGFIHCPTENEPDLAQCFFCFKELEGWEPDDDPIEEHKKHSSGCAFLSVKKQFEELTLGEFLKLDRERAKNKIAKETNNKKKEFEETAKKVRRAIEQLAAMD

What was measured:
[1] = target: Survivin (human (endogenous in CAL27)) (UniProt O15392); test: co-IP; endogenous FBXL7 and Survivin in Skp2-deficient (knockout) and control CAL27 cells, with or without IR, cultured 24 h; IP lysis buffer, protein A/G-agarose beads and antibody at 4 °C for 24 h, western blot; precipitating antibody not stated
[2] = target: Flag-Survivin-T34D (UniProt O15392); test: co-IP; Flag-Survivin-WT or T34D transfected into CAL27 cells for 48 h, IR treatment, cultured 24 h, MG132 for 6 h; interaction with endogenous FBXL7 read by immunoblot; precipitating antibody not stated
[3] = target: Flag-Survivin-WT (UniProt O15392); test: as above

Measured: binding

B1: FBXL7 (protein, UniProt Q9UJT9 1-491)
chain: MGANNGKQYGSEGKGSSSISSDVSSSTDHTPTKAQKNVATSEDSDLSMRTLSTPSPALICPPNLPGFQNGRGSSTSSSSITGETVAMVHSPPPTRLTHPLIRLASRPQKEQASIDRLPDHSMVQIFSFLPTNQLCRCARVCRRWYNLAWDPRLWRTIRLTGETINVDRALKVLTRRLCQDTPNVCLMLETVTVSGCRRLTDRGLYTIAQCCPELRRLEVSGCYNISNEAVFDVVSLCPNLEHLDVSGCSKVTCISLTREASIKLSPLHGKQISIRYLDMTDCFVLEDEGLHTIAAHCTQLTHLYLRRCVRLTDEGLRYLVIYCASIKELSVSDCRFVSDFGLREIAKLESRLRYLSIAHCGRVTDVGIRYVAKYCSKLRYLNARGCEGITDHGVEYLAKNCTKLKSLDIGKCPLVSDTGLECLALNCFNLKRLSLKSCESITGQGLQIVAANCFDLQTLNVQDCEVSVEALRFVKRHCKRCVIEHTNPAFF
binds: all assays above
